Experimental data published in article PMC7279249 (International Journal of Molecular Sciences, 2020).
HELM strings list residues between dots; [ac] is acetyl, [am] amide, other brackets name non-standard units.

Experiment: general procedure: Fmoc solid-phase peptide synthesis
Conditions: whole synthesis

With “PEPTIDE1{[ac].[TzCat].[TzBn2].[TzCat].[TzBn2].[am]}$$$$V2.0” the “final purity (method not given)” value was “purity>95%” and the isolated yield was “yield 54%”.

With PEPTIDE1{[ac].K.W.K.W.[am]}$$$$V2.0 the “final purity (method not given)” value was “purity>95%” and the isolated yield was “yield 63%”.
